Source: paper PMC11264956
These are yes or no findings as the source states them, for the method shown. Binding seen in cells or lysates may run through a third protein. Some entries that bind do so weakly or less than the wild type.

Sequences of proteins named here, by UniProt entry; tags and fusion partners are left off.
UniProt P42336: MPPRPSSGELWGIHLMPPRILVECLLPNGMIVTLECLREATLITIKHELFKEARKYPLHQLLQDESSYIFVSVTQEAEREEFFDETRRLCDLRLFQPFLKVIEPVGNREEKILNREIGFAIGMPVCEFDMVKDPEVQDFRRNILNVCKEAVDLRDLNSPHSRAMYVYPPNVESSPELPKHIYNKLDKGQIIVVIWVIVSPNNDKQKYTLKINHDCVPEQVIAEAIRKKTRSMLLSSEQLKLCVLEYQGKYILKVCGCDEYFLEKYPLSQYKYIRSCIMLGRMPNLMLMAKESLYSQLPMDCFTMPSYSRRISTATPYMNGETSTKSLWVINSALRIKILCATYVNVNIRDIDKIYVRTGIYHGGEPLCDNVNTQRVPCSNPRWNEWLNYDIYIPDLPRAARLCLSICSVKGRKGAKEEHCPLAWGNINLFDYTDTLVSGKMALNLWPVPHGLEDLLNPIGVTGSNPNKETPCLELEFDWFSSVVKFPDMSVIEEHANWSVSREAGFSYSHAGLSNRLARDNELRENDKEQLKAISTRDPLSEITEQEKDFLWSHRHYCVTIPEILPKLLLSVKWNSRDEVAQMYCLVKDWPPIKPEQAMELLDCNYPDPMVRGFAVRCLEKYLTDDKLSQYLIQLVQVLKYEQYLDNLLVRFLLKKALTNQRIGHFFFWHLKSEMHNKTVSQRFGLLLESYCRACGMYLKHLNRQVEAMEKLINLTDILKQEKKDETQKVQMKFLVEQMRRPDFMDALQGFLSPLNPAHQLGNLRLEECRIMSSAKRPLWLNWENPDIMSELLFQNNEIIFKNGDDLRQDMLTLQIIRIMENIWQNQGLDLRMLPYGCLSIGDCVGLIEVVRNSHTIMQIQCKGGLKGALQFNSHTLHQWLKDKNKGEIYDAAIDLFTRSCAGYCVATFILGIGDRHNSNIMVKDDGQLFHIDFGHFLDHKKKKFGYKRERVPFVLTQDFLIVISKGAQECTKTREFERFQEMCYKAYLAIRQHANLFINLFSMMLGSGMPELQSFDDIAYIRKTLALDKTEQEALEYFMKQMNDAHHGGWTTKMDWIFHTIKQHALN
UniProt P27986: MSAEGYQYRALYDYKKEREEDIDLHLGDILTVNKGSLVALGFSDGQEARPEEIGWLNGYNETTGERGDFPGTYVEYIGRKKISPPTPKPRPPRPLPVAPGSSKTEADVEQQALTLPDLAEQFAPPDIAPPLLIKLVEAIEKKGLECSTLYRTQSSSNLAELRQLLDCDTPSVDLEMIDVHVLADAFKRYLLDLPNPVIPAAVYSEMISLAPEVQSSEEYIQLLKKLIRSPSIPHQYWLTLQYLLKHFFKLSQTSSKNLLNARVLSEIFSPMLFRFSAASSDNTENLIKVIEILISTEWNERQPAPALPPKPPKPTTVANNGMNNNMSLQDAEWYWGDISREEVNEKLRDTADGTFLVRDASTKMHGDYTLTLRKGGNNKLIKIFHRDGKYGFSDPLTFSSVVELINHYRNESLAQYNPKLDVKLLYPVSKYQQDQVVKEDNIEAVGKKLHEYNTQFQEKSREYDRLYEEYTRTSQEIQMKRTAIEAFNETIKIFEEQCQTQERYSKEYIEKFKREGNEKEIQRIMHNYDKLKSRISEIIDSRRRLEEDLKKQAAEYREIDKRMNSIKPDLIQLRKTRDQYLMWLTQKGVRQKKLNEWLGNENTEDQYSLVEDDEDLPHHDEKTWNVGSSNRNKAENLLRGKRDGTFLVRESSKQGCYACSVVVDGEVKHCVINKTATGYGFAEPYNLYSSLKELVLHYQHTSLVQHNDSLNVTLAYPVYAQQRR

T1: testes-specific protease 50 (TSP50), endogenous (human (endogenous in MCF7 and MDA-MB-231)) (UniProt Q9UI38)
T1 sequence: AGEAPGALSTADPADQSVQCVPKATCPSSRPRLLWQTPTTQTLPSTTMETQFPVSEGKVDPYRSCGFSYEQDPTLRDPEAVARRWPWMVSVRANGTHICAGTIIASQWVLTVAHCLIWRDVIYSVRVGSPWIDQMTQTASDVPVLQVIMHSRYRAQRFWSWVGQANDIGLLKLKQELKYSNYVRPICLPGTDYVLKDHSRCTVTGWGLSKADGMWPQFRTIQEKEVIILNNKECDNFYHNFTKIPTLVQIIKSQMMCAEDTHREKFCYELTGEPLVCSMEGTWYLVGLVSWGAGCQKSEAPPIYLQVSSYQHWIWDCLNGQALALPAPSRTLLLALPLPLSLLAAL

B1: testes-specific protease 50 (TSP50), endogenous (protein, UniProt Q9UI38 40-385)
chain: T1 sequence
B2: TSP50, stably overexpressed by lentivirus (protein, UniProt Q9UI38 40-385)
chain: T1 sequence

Key:
[1] = target: T1, testes-specific protease 50 (TSP50), endogenous (human (endogenous in MCF7 and MDA-MB-231)); test: co-IP; IP with anti-TSP50 antibody on protein A/G magnetic beads from MCF7 and MDA-MB-231 cells; Western blot with anti-AKT, anti-p85α or anti-p110α
[2] = target: PI3K p110α catalytic subunit, endogenous (human (endogenous in MCF7 and MDA-MB-231)) (UniProt P42336); test: co-IP; IP with anti-p110α antibody on protein A/G magnetic beads from MCF7 and MDA-MB-231 cells; Western blot with anti-TSP50 and anti-p85α; cells untreated, stably overexpressing NC or TSP50 (MCF7), transfected with shNC or shTSP50 (MDA-MB-231), or transfected with Flag-TSP50 wild type or D206A

Molecule | binding [1] | binding [2]
PI3K p85α regulatory subunit, endogenous (from UniProt P27986 1-724) | no binding | 
B1 |  | binds
B2 |  | binds
